In publication PMC5945585 one finds binding data, which are given here for 1 molecule.

The chains behind the UniProt entries cited, without tags or fusion partners.
UniProt Q14781: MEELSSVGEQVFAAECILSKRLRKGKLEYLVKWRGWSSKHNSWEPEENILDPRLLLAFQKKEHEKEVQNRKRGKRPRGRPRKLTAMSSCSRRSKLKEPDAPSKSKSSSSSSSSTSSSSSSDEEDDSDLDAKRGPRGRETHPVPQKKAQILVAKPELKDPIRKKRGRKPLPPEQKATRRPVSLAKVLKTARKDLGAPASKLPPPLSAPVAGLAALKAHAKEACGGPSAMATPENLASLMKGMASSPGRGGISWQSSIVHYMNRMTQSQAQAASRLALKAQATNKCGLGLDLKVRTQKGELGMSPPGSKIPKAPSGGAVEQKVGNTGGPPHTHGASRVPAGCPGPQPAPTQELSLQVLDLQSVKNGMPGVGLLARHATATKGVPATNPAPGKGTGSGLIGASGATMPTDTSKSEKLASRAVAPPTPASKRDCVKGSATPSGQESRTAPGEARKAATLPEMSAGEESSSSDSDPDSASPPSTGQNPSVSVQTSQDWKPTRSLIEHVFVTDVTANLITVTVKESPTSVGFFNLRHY

Results are given in words; binding and its absence hold for the method and conditions named. In cells and extracts the contact can be indirect. These calls come from enrichment with a bait or labelling near it, and not all partners need be listed.

This experiment deals with N-terminal GFP-tagged CBX2 (Tet-On inducible HeLa stable line) (human) (UniProt Q14781). The experiment in a line: affinity purification with mass spectrometry; GFP-Trap of GFP/CBX2 from HeLa nuclear extract (1 mg) against wt HeLa, triplicate; 300 mM NaCl, 0.15% NP-40, 20 mM HEPES-KOH pH 7.9, ethidium bromide; label-free LC-MS/MS.

B1: CBX4 (endogenous) (protein, UniProt O00257 1-560)
chain: MELPAVGEHVFAVESIEKKRIRKGRVEYLVKWRGWSPKYNTWEPEENILDPRLLIAFQNRERQEQLMGYRKRGPKPKPLVVQVPTFARRSNVLTGLQDSSTDNRAKLDLGAQGKGQGHQYELNSKKHHQYQPHSKERAGKPPPPGKSGKYYYQLNSKKHHPYQPDPKMYDLQYQGGHKEAPSPTCPDLGAKSHPPDKWAQGAGAKGYLGAVKPLAGAAGAPGKGSEKGPPNGMMPAPKEAVTGNGIGGKMKIVKNKNKNGRIVIVMSKYMENGMQAVKIKSGEVAEGEARSPSHKKRAADERHPPADRTFKKAAGAEEKKVEAPPKRREEEVSGVSDPQPQDAGSRKLSPTKEAFGEQPLQLTTKPDLLAWDPARNTHPPSHHPHPHPHHHHHHHHHHHHAVGLNLSHVRKRCLSETHGEREPCKKRLTARSISTPTCLGGSPAAERPADLPPAAALPQPEVILLDSDLDEPIDLRCVKTRSEAGEPPSSLQVKPETPASAAVAVAAAAAPTTTAEKPPAEAQDEPAESLSEFKPFFGNIIITDVTANCLTVTFKEYVTV
Turning to B1, the binding result is recorded as “binds”.
